Data as given in US10725045B2, “Quantifying MGMT protein for optimal cancer therapy of glioblastoma” (NantOmics, LLC, priority 2018, dated 2020).
At least one compound was matched to its structure with a doubt left.

Tested on: glioblastoma (GBM)
Experiment: Progression-free survival of GBM patients treated with temozolomide, stratified by tumor MGMT protein level (SRM mass spectrometry)
Assay type: in vivo, human

## Cn1nnc2c(C(N)=O)ncn2c1=O [temozolomide]
GBM patients with MGMT protein levels below a cutoff of 150 amol/μg (n=19) compared with patients above the cutoff, p=0.040, 22 patients, all treated with temozolomide
  median progression-free survival (PFS): greater
GBM patients with increased MGMT protein expression (above the cutoff of 150 amol/μg), FIG. 1
  progression-free survival after initial diagnosis and initiation of treatment: decreased progression-free survival
